From PubChem BioAssay AID588497 (NMMLSC, 2011)
In all, about 360,000 compounds went through this assay and about 780 (0.22%) were called active. The inconclusive results got no clear call from the source; some entries with a clear call stand among them for comparison. Rule as the data show it: active = inhibition above about 35% (passing the limit was not always enough); inconclusive = no clear call, values can overlap the other calls.

test system: Botulinum neurotoxin type F light chain protease (Clostridium botulinum); assay: BoNT/F light chain protease inhibitors, primary screen, biochemical, flow cytometry, MLPCN library (AID 588497); conditions: Multiplex microsphere protease cleavage assay, at 10 µM, active compounds read high; also: plate controls were buffer without enzyme for full effect and enzyme alone for no effect

Compound | inhibition
C=CCn1c(=O)c(C(=O)Nc2ccccc2O)c(O)c2ccccc21 | inactive: -15%
CC(=O)c1ccc(S(=O)(=O)NC2CC(=O)N(c3ccc(C)c(C)c3)C2)cc1 (stereo not drawn) | inactive: 16.7%
O=C(N/N=C/c1ccccc1Cl)c1ccncc1 | inconclusive: 20.5%
CC(NS(=O)(=O)c1ccc2c(c1)C(=O)c1cc(S(=O)(=O)NC(C)C(=O)O)ccc1-2)C(=O)O (stereo not drawn) | inconclusive: -0.1%
O=C(Nc1ccc(F)cc1)c1ccc(S(=O)(=O)N2CCOCC2)o1 | inconclusive: 52.6%
CCOc1ccc(NCc2nnc(SCC(=O)Nc3nc(-c4ccccc4)cs3)n2-c2ccccc2)cc1 | inactive: -1.4%
Brc1cc(Cc2nnc(-c3ccccc3)o2)c(Br)s1 | inconclusive: -55.2%
Cc1ccc(C)c(N(C(=O)c2ccco2)C(C(=O)NC2CCCC2)c2ccco2)c1 (stereo not drawn) | inactive: -20.5%
COc1ccc(CN2CC=C(c3ccc(F)cc3)CC2)cc1Br | inconclusive: -9.7%
CCCCn1c(CCC(=O)O)nc2cc(S(=O)(=O)N(CC)CC)ccc21 | inactive: -34.8%
CN(C)c1ccc(C(=O)Nc2cc(C(F)(F)F)ccc2-n2cncn2)cc1 | inconclusive: -21.8%
COC(=O)CCCN1C(=O)c2cccc3cccc(c23)C1=O | inconclusive: 5%
Cc1ccc(O)c(-c2cc(C(=O)NCc3ccc4c(c3)OCO4)[nH]n2)c1 | inactive: -3.3%
Cc1cc(C)cc(C(=O)N(C)C2CCCN(Cc3ccccc3F)C2)c1 (stereo not drawn) | inconclusive: 58.3%
Cc1cccc(OCCC(=O)Nc2ccc(Cl)cc2F)c1 | inconclusive: -25.9%
O=C(Nc1nccs1)c1c(O)c2c(n(Cc3ccco3)c1=O)CCCC2 | inconclusive: 34.6%
Cc1oc(-c2ccc(Cl)cc2)cc1C(=O)NC1CCN(Cc2ccccc2)CC1 | inconclusive: -19.6%
COc1cccc(N(CC(=O)NC2CCCCC2)C(=O)Cn2nnc(-c3ccc(C)o3)n2)c1 | inactive: 1.7%
Cc1nnc(N/N=C/c2ccc(-c3ccccc3F)o2)n1N | inactive: 3%
CCc1ccc2c(c1)CCCN2C(=O)c1ccccc1C(=O)O | inactive: -4.5%
CCn1c(=NC(=O)c2cccc(N3C(=O)CCC3=O)c2)sc2c(C)ccc(OC)c21 | inactive: 0.6%
CN(CC(=O)Nc1ccccc1Cl)C(=O)c1ccc(-c2cccc(C(F)(F)F)c2)o1 | inconclusive: -12.6%
O=C(Nc1cccc(Cl)c1)OCCOc1ccccc1 | inconclusive: -56.2%
COc1ccc(OC)c(NC(=O)CSc2nc(O)cc(=O)n2CC(C)C)c1 | inactive: -8.9%

Compound | inhibition
COc1ccc(-c2csc3ncnc(N4CCN(c5ccccc5)CC4)c23)cc1 | inconclusive: -38.5%
COc1ccc(C(=O)Nc2ccncc2)cc1[N+](=O)[O-] | inconclusive: -22.3%
Cc1nnnn1/C(=C\c1ccccc1)C(=O)OCC(=O)N(C)C1CCS(=O)(=O)C1 (stereo not drawn) | inactive: -12.7%
CCOc1cc(S(=O)(=O)N2CC=C(c3ccc(F)cc3)CC2)c(OCC)cc1-n1cnnn1 | inactive: -2.7%
Cc1ccccc1-c1nc(CS(=O)CC(=O)NCCN2CCN(Cc3ccccc3)CC2)c(C)o1 (stereo not drawn) | inactive: 0.3%
CNC(=S)N1CCN(c2nc(-c3cccc(OC)c3)cs2)CC1 | inconclusive: 2%
Cc1nn(C)c(C)c1NC(=O)c1cc2nc(-c3ccco3)cc(C(F)(F)F)n2n1 | inactive: -1.1%
Cc1cc(=O)[nH]c(Nc2ccc(N(C)C)cc2)n1 | inconclusive: -24.1%
CC(=O)c1ccc(NC(=O)C2(c3ccccc3)CC2(Cl)Cl)cc1 (stereo not drawn) | inconclusive: -43.6%
O=C(Nc1nnc(Cc2ccccc2F)s1)c1ccccc1Cl | inconclusive: 16.7%
NCCc1nnc(SCc2c(Cl)cccc2Cl)o1 | inconclusive: 10.9%
Cc1nn(CCC(=O)NNC(=S)Nc2ccccc2)c(C)c1Br | inactive: -3.8%
Fc1ccccc1CN1CCCC(NC2CCC2)C1 (stereo not drawn) | inconclusive: 14.4%
NC(N)=NN=C1CCCCCCCCCCC1 | inconclusive: 23.5%
CCCCNC(=O)COn1nnc2ccc(S(=O)(=O)N3CCOCC3)cc21 | inconclusive: -24.9%
O=C(Oc1ccc(Oc2ccccc2)cc1)N1CCC(O)CC1 | inconclusive: -14.6%
COc1ccc(/C=C/C(=O)O)cc1S(=O)(=O)N1CCCC1 | inconclusive: 7.6%
COc1ccccc1NCC(=O)c1ccc(Cl)cc1 | inconclusive: 8.3%
CN(C)c1ccc(/C=N/N2C(=S)SC(C)(C)C2N(O)C(=O)Nc2ccc([N+](=O)[O-])cc2)cc1 (stereo not drawn) | inactive: -8.5%
CCOC(=O)C1CCCN(Cc2ccc(OCc3ccccc3)cc2)C1 (stereo not drawn) | inconclusive: 0.8%
CC(C)NC(=O)c1ccc(N(Cc2ccccc2)S(C)(=O)=O)cc1 | inconclusive: -30.1%
COc1cccc(OCC(O)CNC(=O)c2oc3c(C)c(C)ccc3c2C)c1 (stereo not drawn) | inconclusive: -41.9%
CCCCCCN1C[C@@H](O)[C@H](n2cc(C3CC3)nn2)C[C@@H]1c1ccc(C)cc1 | inactive: 0.3%
CCCN1C(=O)C2C(C(=O)Nc3cccc(OC)c3)C3C=CC2(O3)C1C(=O)NC1CCCCC1 (stereo not drawn) | inconclusive: -10.2%

Compound | inhibition
COc1ccccc1NC(=O)C1C2C=CC(C2)C1C(=O)NCc1cccnc1 (stereo not drawn) | inconclusive: -11.6%
Cc1ccc(/C=C/C(=O)Nc2ncc(C)s2)o1 | inactive: -7.1%
COc1ccc(NC(=O)c2ccc(C)cc2)c[n+]1[O-] | inconclusive: 3.1%
COc1ccc(NC(=O)c2cccc(NC(=O)c3ccccc3)c2)c(OC)c1 | inconclusive: 9.9%
CC(Sc1nnc(-c2ccco2)n1N)C(=O)NC1CCCCC1C (stereo not drawn) | inactive: 2.5%
COc1ccccc1-c1c(C(F)(F)F)oc2c(CN(C)C)c(O)ccc2c1=O | inconclusive: -1%
COc1cc(Nc2ccccc2Cl)c([N+](=O)[O-])nc1[N+](=O)[O-] | inactive: -3.9%
COCC(=O)NCc1ccc2c(c1)OCO2 | inactive: 3.8%
COc1ccc(-c2noc(CCC(=O)Nc3cccnc3)n2)cc1OC | inconclusive: 6%
O=[N+]([O-])c1cccc(-c2nn(-c3ccccc3)cc2CO)c1 | inconclusive: -30%
CN(C)C(=S)NC(C)(C)C | inconclusive: -178%
COc1ccc(-n2ncc3c(NCc4ccco4)ncnc32)cc1 | inactive: -3.8%
CCOc1ccc(NC(=O)CSc2nnc(-c3ccccn3)n2N)cc1 | inactive: -1.1%
COc1ccc(OC)c(Nc2nc(NCCC(C)C)nc(N)c2[N+](=O)[O-])c1 | inconclusive: -16.4%
O=C(c1cc(Br)ccc1Cl)N1CCN(c2ccccn2)CC1 | inconclusive: 8.3%
O=C(C1CC(c2cccc(Br)c2)=NO1)N1CCc2ccccc2C1 (stereo not drawn) | inconclusive: 3.5%
O=C(c1cc2ccccc2o1)N1CC=C(c2ccccc2)CC1 | inconclusive: -155%
C=CCc1cccc(CNc2cnc3ccccc3c2)c1O | inconclusive: -11.7%
N#Cc1ccccc1NC(=O)c1ccccc1OCC(=O)NCc1ccco1 | inactive: 3.2%
COc1cc(CNc2ccc(CNc3ncn[nH]3)cc2)ccc1OCc1ccccc1 | inactive: -6.7%
O=C(NCc1ccc2c(c1)OCO2)c1c(Cl)cccc1Cl | inactive: 11.7%
CN(C)/C=C/C(=O)c1ccc(F)cc1 | inactive: 9.6%
Cc1ccc(OCC(O)CN2CCN(c3ccc(C)cc3)CC2)cc1 (stereo not drawn) | inconclusive: -22.5%
C=CCOc1ccccc1/C=N/NC(=O)Cc1ccc(C)cc1 | inconclusive: 9.5%

Part of the list above, with each value named:
CC(C)NC(=O)c1ccc(N(Cc2ccccc2)S(C)(=O)=O)cc1
  inhibition: inconclusive: -30.1%
COc1cc(Nc2ccccc2Cl)c([N+](=O)[O-])nc1[N+](=O)[O-]
  inhibition: inactive: -3.9%

Further compounds follow.

Compound | inhibition
O=C(N/N=C/C=C/c1ccccc1[N+](=O)[O-])c1ccncc1 | active: 55.5%
CCOC(=O)C1CCCN(C(=O)c2ccc(SC(F)(F)F)cc2)CC1 (stereo not drawn) | inactive: 4.2%
CC1=NNC(=O)C1Cc1ccc(F)cc1 (stereo not drawn) | inconclusive: -32.9%
c1ccc(-c2csc3nnc(SCc4ccc5c(c4)OCCO5)n23)cc1 | inactive: -10.6%
Cc1ccc(NC(=O)CSc2nnc(NC(=O)CN3CCOCC3)s2)cc1 | inactive: 4.8%
O=C(NCc1ccccc1Br)c1ccc2c(c1)OCCO2 | inconclusive: -6.3%
O=C(c1sccc1Br)N1CCN(Cc2ccc3c(c2)OCO3)CC1 | inconclusive: -11.6%
COC(=O)Cn1c(C)c(/C=C/c2cc[n+](C)cc2)c2ccccc21 | inconclusive: 15.7%
CC(=O)Oc1ccc2ccc(=O)oc2c1 | inactive: 4.8%
Cc1ccc(Nc2nc(-c3ccccc3)cs2)nc1 | inconclusive: 4.9%
CC(=O)Nc1ccc(NC(=O)c2c([N+](=O)[O-])c(C(C)(C)C)nn2C)cc1 | inconclusive: -14.4%
COCCCNC(=O)CSc1nc2ccc(N3CCOCC3)cc2c(=O)n1CCc1ccccc1 | inconclusive: -1.7%
COc1ccc(C(=O)O)cc1S(=O)(=O)N1CCCc2ccccc21 | inactive: 4.7%
CCN(CC(=O)Nc1ccc(NC(C)=O)cc1)C(=O)c1cc(C)on1 | inconclusive: -10%
C[n+]1ccccc1/C=C/c1ccc(C#N)cc1 | inconclusive: -9.5%
COc1ccc(N/N=C(/C#N)S(=O)(=O)c2nsc(C)c2C#N)cc1 | inactive: 0.8%
O=C(NC1CCN(Cc2ccc(F)cc2)CC1)c1ccccc1 | inconclusive: 8.9%
O=C(COC(=O)c1nc(Cl)ccc1Cl)NC1CCCCCC1 | inconclusive: 0.1%
COC(=O)C1=C(C)N(CCc2ccccc2)C(=O)C1 | inconclusive: 11.1%
CC/C(C)=C1\SC(N2CCOCC2)=NC1=O | inactive: -3%
CCCCN(C(=O)c1cccc(-n2cccc2)c1)c1c(N)n(Cc2ccccc2)c(=O)[nH]c1=O | inconclusive: -6.2%

Rewritten with tabs: part of the list above
Compound	inhibition
Cc1ccccc1-c1nc(CS(=O)CC(=O)NCCN2CCN(Cc3ccccc3)CC2)c(C)o1 (stereo not drawn)	inactive: 0.3%
CNC(=S)N1CCN(c2nc(-c3cccc(OC)c3)cs2)CC1	inconclusive: 2%
